# From the supplement of paper PMC10849652
# By UniProt entry, the sequences of proteins in these tests, tags left out. Where a name states a change or a piece, a line headed by the entry shows the natural chain unless it says otherwise.
# UniProt P02787, whole entry, looked up: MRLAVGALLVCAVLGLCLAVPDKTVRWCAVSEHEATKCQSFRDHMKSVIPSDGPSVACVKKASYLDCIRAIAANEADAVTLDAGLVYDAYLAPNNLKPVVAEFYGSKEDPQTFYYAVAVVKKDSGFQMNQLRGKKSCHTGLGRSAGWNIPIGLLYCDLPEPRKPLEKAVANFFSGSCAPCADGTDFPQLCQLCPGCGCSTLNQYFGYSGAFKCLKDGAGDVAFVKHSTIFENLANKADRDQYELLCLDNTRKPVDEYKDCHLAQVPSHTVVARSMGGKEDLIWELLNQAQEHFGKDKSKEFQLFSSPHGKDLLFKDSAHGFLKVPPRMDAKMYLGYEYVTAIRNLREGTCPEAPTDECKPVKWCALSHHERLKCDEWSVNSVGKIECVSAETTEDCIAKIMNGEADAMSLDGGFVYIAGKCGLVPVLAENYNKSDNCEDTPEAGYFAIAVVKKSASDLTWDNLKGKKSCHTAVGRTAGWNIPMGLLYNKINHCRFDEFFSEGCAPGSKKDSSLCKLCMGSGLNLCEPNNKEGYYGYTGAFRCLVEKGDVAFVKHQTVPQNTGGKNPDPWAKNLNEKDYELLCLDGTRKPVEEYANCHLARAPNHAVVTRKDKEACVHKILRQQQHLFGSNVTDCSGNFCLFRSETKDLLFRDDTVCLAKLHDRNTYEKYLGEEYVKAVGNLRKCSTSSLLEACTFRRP
# UniProt Q9NXF1: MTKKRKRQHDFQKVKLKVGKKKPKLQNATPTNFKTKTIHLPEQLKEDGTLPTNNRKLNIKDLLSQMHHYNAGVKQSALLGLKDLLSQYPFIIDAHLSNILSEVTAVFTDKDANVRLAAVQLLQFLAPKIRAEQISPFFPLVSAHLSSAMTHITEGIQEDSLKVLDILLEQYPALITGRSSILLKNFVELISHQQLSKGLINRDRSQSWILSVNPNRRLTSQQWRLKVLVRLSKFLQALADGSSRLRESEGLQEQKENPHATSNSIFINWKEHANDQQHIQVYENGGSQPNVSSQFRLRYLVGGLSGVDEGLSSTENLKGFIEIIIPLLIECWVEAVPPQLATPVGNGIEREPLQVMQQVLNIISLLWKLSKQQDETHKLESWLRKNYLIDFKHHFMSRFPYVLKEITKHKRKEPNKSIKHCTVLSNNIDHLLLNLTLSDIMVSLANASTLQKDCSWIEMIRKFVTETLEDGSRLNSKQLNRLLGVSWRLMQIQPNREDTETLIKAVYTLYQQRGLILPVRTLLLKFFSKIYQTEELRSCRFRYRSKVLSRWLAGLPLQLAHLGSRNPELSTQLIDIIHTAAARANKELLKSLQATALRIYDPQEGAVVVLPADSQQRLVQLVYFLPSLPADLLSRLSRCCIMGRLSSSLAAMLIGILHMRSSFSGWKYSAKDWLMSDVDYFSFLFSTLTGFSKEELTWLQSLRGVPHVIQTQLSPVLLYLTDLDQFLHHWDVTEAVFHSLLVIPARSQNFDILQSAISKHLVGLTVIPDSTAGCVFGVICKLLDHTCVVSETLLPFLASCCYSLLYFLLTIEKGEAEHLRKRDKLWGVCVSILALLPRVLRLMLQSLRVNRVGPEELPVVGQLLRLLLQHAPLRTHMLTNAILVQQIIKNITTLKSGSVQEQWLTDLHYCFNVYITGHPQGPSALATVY
# UniProt P37837: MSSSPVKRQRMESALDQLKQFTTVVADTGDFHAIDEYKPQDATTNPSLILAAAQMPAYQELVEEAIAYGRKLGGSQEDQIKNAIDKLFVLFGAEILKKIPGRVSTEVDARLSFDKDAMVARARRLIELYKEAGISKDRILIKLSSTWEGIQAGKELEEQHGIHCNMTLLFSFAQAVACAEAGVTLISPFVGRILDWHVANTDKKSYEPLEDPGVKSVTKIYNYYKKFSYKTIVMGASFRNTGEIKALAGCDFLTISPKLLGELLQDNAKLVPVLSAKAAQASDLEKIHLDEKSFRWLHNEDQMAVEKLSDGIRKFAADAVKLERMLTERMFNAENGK
# UniProt Q5JUR7: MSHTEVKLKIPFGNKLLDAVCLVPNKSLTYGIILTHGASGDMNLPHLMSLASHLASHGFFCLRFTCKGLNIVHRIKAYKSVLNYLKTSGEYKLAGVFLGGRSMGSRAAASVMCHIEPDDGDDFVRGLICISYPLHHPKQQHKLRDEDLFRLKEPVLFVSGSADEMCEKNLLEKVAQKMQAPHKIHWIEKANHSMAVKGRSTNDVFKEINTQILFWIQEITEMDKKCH
# UniProt P17542, whole entry, looked up: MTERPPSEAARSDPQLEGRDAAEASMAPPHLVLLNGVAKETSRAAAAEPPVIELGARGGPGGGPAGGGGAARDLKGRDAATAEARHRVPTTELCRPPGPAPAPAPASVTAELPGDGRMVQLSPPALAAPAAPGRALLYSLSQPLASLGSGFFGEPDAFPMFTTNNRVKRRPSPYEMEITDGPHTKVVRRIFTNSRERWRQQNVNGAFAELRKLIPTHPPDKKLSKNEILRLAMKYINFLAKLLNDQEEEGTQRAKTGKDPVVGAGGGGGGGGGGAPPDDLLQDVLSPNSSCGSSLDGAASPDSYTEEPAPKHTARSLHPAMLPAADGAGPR
# UniProt Q9H7E2: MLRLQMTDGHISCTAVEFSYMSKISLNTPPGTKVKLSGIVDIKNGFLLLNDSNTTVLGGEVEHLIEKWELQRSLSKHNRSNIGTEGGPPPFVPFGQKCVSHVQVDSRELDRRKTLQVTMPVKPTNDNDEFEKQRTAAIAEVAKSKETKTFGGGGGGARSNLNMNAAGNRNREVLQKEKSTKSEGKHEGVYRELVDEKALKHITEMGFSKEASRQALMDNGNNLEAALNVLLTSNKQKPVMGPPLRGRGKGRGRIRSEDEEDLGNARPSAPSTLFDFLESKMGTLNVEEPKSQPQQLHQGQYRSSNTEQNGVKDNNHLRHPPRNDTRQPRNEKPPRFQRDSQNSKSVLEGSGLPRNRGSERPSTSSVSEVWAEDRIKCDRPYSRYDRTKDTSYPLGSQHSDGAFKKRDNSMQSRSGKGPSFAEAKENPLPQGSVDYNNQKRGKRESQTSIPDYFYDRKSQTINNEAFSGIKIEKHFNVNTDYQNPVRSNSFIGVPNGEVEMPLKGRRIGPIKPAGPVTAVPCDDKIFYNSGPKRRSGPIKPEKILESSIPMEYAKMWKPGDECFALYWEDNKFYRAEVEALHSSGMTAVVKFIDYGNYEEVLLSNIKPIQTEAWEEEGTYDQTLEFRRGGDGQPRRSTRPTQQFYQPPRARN
# UniProt Q14186: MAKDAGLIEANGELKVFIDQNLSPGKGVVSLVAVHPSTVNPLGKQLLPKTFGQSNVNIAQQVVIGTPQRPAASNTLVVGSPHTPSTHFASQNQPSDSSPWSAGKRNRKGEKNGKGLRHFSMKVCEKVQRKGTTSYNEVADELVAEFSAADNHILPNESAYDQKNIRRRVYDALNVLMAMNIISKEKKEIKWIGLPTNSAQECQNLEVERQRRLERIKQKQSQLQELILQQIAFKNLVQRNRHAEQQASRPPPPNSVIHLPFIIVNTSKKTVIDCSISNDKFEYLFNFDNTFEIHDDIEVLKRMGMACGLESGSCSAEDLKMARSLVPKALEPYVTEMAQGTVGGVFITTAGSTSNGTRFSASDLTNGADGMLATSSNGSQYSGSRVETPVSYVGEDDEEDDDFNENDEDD
# UniProt Q9Y6J9: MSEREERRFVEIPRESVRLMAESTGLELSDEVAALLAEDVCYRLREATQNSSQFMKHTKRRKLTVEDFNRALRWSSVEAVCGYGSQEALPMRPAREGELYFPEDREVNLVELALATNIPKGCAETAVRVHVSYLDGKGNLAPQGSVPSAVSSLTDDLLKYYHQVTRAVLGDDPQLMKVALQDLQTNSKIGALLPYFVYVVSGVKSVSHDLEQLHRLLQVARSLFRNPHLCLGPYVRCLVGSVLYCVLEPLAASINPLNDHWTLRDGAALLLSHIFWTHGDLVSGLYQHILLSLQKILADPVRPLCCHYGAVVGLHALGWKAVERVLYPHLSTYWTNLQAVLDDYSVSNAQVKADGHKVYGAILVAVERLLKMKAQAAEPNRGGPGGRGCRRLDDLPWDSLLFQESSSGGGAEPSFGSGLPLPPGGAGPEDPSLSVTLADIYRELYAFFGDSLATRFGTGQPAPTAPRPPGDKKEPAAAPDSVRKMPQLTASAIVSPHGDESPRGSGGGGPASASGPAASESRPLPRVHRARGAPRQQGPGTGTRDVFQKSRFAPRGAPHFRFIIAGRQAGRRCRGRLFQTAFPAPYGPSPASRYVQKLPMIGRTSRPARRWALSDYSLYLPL
# UniProt Q9UP52: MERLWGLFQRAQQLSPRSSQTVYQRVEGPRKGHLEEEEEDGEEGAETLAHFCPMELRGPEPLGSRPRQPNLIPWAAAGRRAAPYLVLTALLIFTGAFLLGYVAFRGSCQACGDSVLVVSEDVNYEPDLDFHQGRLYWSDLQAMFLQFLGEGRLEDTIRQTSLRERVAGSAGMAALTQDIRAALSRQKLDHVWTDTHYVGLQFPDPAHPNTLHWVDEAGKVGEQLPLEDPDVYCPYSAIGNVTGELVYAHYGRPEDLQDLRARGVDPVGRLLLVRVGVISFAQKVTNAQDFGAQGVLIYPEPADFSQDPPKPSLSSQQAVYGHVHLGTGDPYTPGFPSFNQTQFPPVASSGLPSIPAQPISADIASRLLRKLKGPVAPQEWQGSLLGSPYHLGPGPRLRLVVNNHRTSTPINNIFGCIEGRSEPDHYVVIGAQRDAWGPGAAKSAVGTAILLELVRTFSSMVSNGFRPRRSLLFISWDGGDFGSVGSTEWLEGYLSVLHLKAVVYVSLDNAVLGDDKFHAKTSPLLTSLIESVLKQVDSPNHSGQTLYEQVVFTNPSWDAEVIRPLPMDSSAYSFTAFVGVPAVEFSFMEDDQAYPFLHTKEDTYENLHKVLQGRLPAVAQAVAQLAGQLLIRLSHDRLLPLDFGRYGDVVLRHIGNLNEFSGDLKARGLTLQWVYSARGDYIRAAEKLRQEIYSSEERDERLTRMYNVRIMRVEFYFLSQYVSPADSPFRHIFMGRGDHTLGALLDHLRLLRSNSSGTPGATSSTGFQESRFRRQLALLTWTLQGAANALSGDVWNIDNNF
# UniProt Q9HA65: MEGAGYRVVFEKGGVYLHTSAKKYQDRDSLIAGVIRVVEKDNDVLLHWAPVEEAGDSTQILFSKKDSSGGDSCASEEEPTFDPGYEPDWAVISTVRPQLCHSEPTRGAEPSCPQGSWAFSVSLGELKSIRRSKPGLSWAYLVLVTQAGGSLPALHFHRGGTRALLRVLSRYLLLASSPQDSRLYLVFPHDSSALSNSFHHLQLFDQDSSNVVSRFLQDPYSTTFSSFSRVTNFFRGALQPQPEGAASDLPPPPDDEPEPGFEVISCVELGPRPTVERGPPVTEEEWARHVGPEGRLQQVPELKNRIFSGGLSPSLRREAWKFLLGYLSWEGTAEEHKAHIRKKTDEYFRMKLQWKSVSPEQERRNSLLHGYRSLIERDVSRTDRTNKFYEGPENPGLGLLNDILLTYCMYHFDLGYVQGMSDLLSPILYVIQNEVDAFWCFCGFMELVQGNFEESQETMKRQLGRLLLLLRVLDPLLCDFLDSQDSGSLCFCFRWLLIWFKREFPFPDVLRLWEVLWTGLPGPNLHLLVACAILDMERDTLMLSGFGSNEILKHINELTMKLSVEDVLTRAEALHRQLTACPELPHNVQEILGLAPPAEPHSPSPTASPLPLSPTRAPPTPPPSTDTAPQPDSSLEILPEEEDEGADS
# UniProt P26639: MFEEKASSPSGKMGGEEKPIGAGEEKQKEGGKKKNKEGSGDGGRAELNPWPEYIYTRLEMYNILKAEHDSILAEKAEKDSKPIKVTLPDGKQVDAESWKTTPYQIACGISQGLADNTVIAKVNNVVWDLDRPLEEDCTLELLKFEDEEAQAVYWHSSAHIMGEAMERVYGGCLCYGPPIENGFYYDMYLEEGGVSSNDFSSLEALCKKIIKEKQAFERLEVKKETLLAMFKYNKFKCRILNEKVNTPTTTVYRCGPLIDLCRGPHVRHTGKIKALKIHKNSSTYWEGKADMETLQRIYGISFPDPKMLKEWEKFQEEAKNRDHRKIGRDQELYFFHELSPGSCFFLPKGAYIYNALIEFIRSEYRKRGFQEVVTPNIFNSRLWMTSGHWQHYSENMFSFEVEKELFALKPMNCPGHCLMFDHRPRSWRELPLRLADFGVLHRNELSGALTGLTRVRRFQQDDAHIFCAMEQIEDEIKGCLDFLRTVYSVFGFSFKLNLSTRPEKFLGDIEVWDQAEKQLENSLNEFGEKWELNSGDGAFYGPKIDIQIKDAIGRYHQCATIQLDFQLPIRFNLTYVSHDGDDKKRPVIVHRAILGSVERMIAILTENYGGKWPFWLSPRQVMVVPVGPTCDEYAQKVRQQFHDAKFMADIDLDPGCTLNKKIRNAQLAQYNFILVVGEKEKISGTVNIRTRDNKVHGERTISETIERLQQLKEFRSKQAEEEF
# UniProt O75347: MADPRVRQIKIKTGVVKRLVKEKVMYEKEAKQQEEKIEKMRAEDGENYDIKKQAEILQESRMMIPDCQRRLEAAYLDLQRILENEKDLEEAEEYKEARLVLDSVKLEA
# This is one part of the list.
# Compound: CC1=C(C(CC(=O)N1)C2=CC=C(C=C2)C(F)(F)F)C(=O)NC3=C(C=C4C(=C3)C=NN4)F
# Assay: log2 fold change, soluble protein after heating vs DMSO (PISA); higher = thermal stabilisation; K562 lysate, 10 uM; active = over 0.2 and 3.5 SD of the protein, either way, in both replicates (recomputed)
# Outline: (§1)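 A 30 min treatment with 10 μM compound was applied to crude K562 extract at 1 mg/mL protein in PBS pH 7.4 with 1 mM MgCl2. Heating for 3 min spanned 48°C-58°C, after which aliquots were pooled, adjusted to 0.5% NP-40 at 4°C and spun at 21,000xg for 90 min. TMTpro 16plex LC-MS/MS of the supernatant, with channel sums equalised, gave values recorded as log-two fold change in thermal stability against solvent controls, from duplicates.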
row,Target,log2 fold change
1,TBL1XR1 (UniProt Q9BZK7),inactive: -0.019
2,TBC1D22B (UniProt Q9NU19),inactive: 0.025
3,TF (UniProt P02787),inactive: 0.182
4,TCAF2 (UniProt A6NFQ2),inactive: 0.022
5,TBC1D22A (UniProt Q8WUA7),inactive: -0.007
6,TEX10 (UniProt Q9NXF1),inactive: 0.057
7,TBC1D10A (UniProt Q9BXI6),inactive: 0
8,TALDO1 (UniProt P37837),inactive: -0.036
9,TDP1 (UniProt Q9NUW8),inactive: 0.012
10,TEX30 (UniProt Q5JUR7),inactive: -0.033
11,TCEA1 (UniProt P23193),inactive: -0.003
12,TFAM (UniProt Q00059),inactive: -0.014
13,TARBP2 (UniProt Q15633),inactive: 0.074
14,TCP1 (UniProt P17987),inactive: -0.03
15,TAL1 (UniProt P17542),inactive: 0.034
16,TBRG4 (UniProt Q969Z0),inactive: 0.001
17,TBC1D15 isoform 3 (UniProt Q8TC07),inactive: 0.007
18,TDRD3 isoform 3 (UniProt Q9H7E2),inactive: -0.073
19,TAPT1 (UniProt Q6NXT6),inactive: -0.019
20,TFDP1 (UniProt Q14186),inactive: 0.015
21,TAF6L (UniProt Q9Y6J9),inactive: -0.041
22,TBC1D9B isoform 2 (UniProt Q66K14),inactive: -0.064
23,TFR2 (UniProt Q9UP52),inactive: 0.007
24,TBCC (UniProt Q15814),inactive: -0.048
25,TFDP2 (UniProt Q14188),inactive: -0.012
26,TERF2IP (UniProt Q9NYB0),inactive: 0.004
27,TAMM41 isoform 3 (UniProt Q96BW9),inactive: -0.031
28,TBC1D17 (UniProt Q9HA65),inactive: 0.064
29,TARS1 (UniProt P26639),inactive: -0.007
30,TBCA (UniProt O75347),inactive: -0.063

# Compound: CC1=C(C2=C(C=C1)C(=O)C3=CC=CC=C3N2CCCN)C
# Assay: as above
# Outline: as §1
row,Target,log2 fold change
1,TBL1XR1 (UniProt Q9BZK7),inactive: 0.012
2,TBC1D22B (UniProt Q9NU19),inactive: -0.062
3,TF (UniProt P02787),inactive: 0.105
4,TCAF2 (UniProt A6NFQ2),inactive: 0.055
5,TBC1D22A (UniProt Q8WUA7),inactive: -0.003
6,TEX10 (UniProt Q9NXF1),inactive: -0.19
7,TBC1D10A (UniProt Q9BXI6),inactive: 0.019
8,TALDO1 (UniProt P37837),inactive: 0.021
9,TDP1 (UniProt Q9NUW8),inactive: -0.078
10,TEX30 (UniProt Q5JUR7),inactive: 0.016
11,TCEA1 (UniProt P23193),inactive: -0.001
12,TFAM (UniProt Q00059),inactive: -0.118
13,TARBP2 (UniProt Q15633),inactive: -0.002
14,TCP1 (UniProt P17987),inactive: -0.004
15,TAL1 (UniProt P17542),inactive: -0.015
16,TBRG4 (UniProt Q969Z0),inactive: 0.062
17,TBC1D15 isoform 3 (UniProt Q8TC07),inactive: -0.006
18,TDRD3 isoform 3 (UniProt Q9H7E2),inactive: -0.004
19,TAPT1 (UniProt Q6NXT6),inactive: -0.014
20,TFDP1 (UniProt Q14186),inactive: -0.034
21,TAF6L (UniProt Q9Y6J9),inactive: -0.006
22,TBC1D9B isoform 2 (UniProt Q66K14),inactive: -0.038
23,TFR2 (UniProt Q9UP52),inactive: -0.018
24,TBCC (UniProt Q15814),inactive: -0.029
25,TFDP2 (UniProt Q14188),inactive: -0.081
26,TERF2IP (UniProt Q9NYB0),inactive: -0.004
27,TAMM41 isoform 3 (UniProt Q96BW9),inactive: -0.002
28,TBC1D17 (UniProt Q9HA65),inactive: 0.049
29,TARS1 (UniProt P26639),inactive: 0.007
30,TBCA (UniProt O75347),inactive: 0.083

# Compound: CC1=C(C=C(C=C1)NC(=O)C2=CC(=CC=C2)C(C)(C)C#N)NC3=CC4=C(C=C3)N=CN(C4=O)C
# Assay: as above
# Outline: as §1
row,Target,log2 fold change
1,TBL1XR1 (UniProt Q9BZK7),inactive: -0.007
2,TBC1D22B (UniProt Q9NU19),inactive: 0.015
3,TF (UniProt P02787),inactive: -0.095
4,TCAF2 (UniProt A6NFQ2),inactive: -0.005
5,TBC1D22A (UniProt Q8WUA7),inactive: -0.014
6,TEX10 (UniProt Q9NXF1),inactive: -0.057
7,TBC1D10A (UniProt Q9BXI6),inactive: -0.009
8,TALDO1 (UniProt P37837),inactive: -0.055
9,TDP1 (UniProt Q9NUW8),inactive: -0.019
10,TEX30 (UniProt Q5JUR7),inactive: -0.027
11,TCEA1 (UniProt P23193),inactive: -0.011
12,TFAM (UniProt Q00059),inactive: -0.017
13,TARBP2 (UniProt Q15633),inactive: 0.029
14,TCP1 (UniProt P17987),inactive: 0.004
15,TAL1 (UniProt P17542),inactive: -0.042
16,TBRG4 (UniProt Q969Z0),inactive: -0.041
17,TBC1D15 isoform 3 (UniProt Q8TC07),inactive: 0.009
18,TDRD3 isoform 3 (UniProt Q9H7E2),inactive: 0
19,TAPT1 (UniProt Q6NXT6),inactive: 0.09
20,TFDP1 (UniProt Q14186),inactive: 0.019
21,TAF6L (UniProt Q9Y6J9),inactive: -0.027
22,TBC1D9B isoform 2 (UniProt Q66K14),inactive: 0.049
23,TFR2 (UniProt Q9UP52),inactive: -0.01
24,TBCC (UniProt Q15814),inactive: -0.008
25,TFDP2 (UniProt Q14188),inactive: 0.037
26,TERF2IP (UniProt Q9NYB0),inactive: -0.008
27,TAMM41 isoform 3 (UniProt Q96BW9),inactive: -0.074
28,TBC1D17 (UniProt Q9HA65),inactive: -0.043
29,TARS1 (UniProt P26639),inactive: -0.015
30,TBCA (UniProt O75347),inactive: -0.033
